# From the supplement of paper PMC12067093, “Discovery and optimisation of a covalent ligand for TRIM25 and its application to targeted protein ubiquitination” (Chemical Science, 2025)
# The other results are listed elsewhere or left out.
# Compound: Cc1cc(ccc1-c1ccccc1)C(=O)N1CCCN(CC1)C(=O)CCl [compound 10]
# Test: probe-labelled cysteine peptide fold change vs DMSO (competition) (log2 fold change); higher = less target engagement (more negative = stronger competition)
# Settings: THP-1, incubation time: 4 h
# 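Note: competitive profiling in live THP-1 cells: cysteine peptides tagged with an iodoacetamide desthiobiotin (IA-DTB) probe, intensity after compound treatment relative to DMSO-treated cells.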
Target,probe-labelled cysteine peptide fold change (10 µM),probe-labelled cysteine peptide fold change (50 µM)
PTCD2_Q8WV60_67_VAVACNLSGTK (UniProt Q8WV60),-0.105,-0.0657
PUM3_Q15397_610_GAIILSSLLQSCDLEVANK (UniProt Q15397),0.0674,0.101
PSME1_Q06323_22_VDVFREDLCTK (UniProt Q06323),-0.172,-0.309
PTK2B_Q14289_744_LQFQVPEGLCASSPTLTSPMEYPSPVNSLHTPPLHR (UniProt Q14289),-0.0815,-0.366
PSMD14_O00487_299_RHLEEHVDVLMTSNIVQCLAAMLDTVVFK (UniProt O00487),0.0447,-0.0374
PUF60_Q9UHX1_487_NMVDPKDIDDDLEGEVTEECGK (UniProt Q9UHX1),-0.163,-0.556
PTPA_Q15257_103_AGHCAPSEAIEK (UniProt Q15257),-0.17,-0.477
PTPRF_P10586_207_YECVATNSAGTR (UniProt P10586),-0.101,-0.45
PURA_Q00577_272_FGHTFCK (UniProt Q00577),-0.22,-0.422
PUM3_Q15397_185_VIQCYIQYGNEEQRK (UniProt Q15397),0.106,-0.0249
PTPN1_P18031_226_SGTFCLADTCLLLMDKR (UniProt P18031),-0.0686,-0.452
PTGFRN_Q9P2B2_655_CMVTAWSPVR (UniProt Q9P2B2),-0.11,0.168
PTK2B_Q14289_677_FTELVCSLSDVYQMEK (UniProt Q14289),0.0567,-0.0135
PSMG1_O95456_235_IPAILYLCYTDVMK (UniProt O95456),0.174,0.692
PSMD1_Q99460_112_QCVENADLPEGEK (UniProt Q99460),-0.196,0.0968
PSMD1_Q99460_633_TPEQCPSVVSLLSESYNPHVR (UniProt Q99460),-0.0347,-0.0178
PTPA_Q15257_199+200_IDYGTGHEAAFAAFLCCLCK (UniProt Q15257),-0.00482,-0.0603
PSMD11_O00231_289_CVAQASK (UniProt O00231),-0.106,0.0595
PTCD1_O75127_565_GLVPNLQTFCNLAIGCHRPK (UniProt O75127),-0.0428,-0.142
PTRH1_Q86Y79_179_VGIGRPAHPEAVQAHVLGCFSPAEQELLPLLLDR (UniProt Q86Y79),0.109,-0.55
PSMD9_O00233_59_GIGMNEPLVDCEGYPR (UniProt O00233),-0.202,-0.434
PURB_Q96QR8_238_FFFDVGCNK (UniProt Q96QR8),0.237,0.012

# Shown with tabs: entries from further up
Target	probe-labelled cysteine peptide fold change (10 µM)	probe-labelled cysteine peptide fold change (50 µM)
PTK2B_Q14289_677_FTELVCSLSDVYQMEK (UniProt Q14289)	0.0567	-0.0135
PSMG1_O95456_235_IPAILYLCYTDVMK (UniProt O95456)	0.174	0.692
PSMD1_Q99460_112_QCVENADLPEGEK (UniProt Q99460)	-0.196	0.0968
PSMD1_Q99460_633_TPEQCPSVVSLLSESYNPHVR (UniProt Q99460)	-0.0347	-0.0178
PTPA_Q15257_199+200_IDYGTGHEAAFAAFLCCLCK (UniProt Q15257)	-0.00482	-0.0603
PSMD11_O00231_289_CVAQASK (UniProt O00231)	-0.106	0.0595
PTCD1_O75127_565_GLVPNLQTFCNLAIGCHRPK (UniProt O75127)	-0.0428	-0.142
PTRH1_Q86Y79_179_VGIGRPAHPEAVQAHVLGCFSPAEQELLPLLLDR (UniProt Q86Y79)	0.109	-0.55
PSMD9_O00233_59_GIGMNEPLVDCEGYPR (UniProt O00233)	-0.202	-0.434
PURB_Q96QR8_238_FFFDVGCNK (UniProt Q96QR8)	0.237	0.012

# Further results follow:

Target,probe-labelled cysteine peptide fold change (10 µM),probe-labelled cysteine peptide fold change (50 µM)
PSMD7_P51665_116_YCPNSVLVIIDVKPK (UniProt P51665),0.0412,0.00674
PSMD1_Q99460_659_YGAAMALGICCAGTGNK (UniProt Q99460),-0.109,-0.0185
PSMC1_P62191_58_LPLVTPHTQCR (UniProt P62191),-0.0192,0.104
PTPRC_P08575_853_RVNAFSNFFSGPIVVHCSAGVGR (UniProt P08575),-0.0401,0.167
PTPRF_P10586_156_TATMLCAAGGNPDPEISWFK (UniProt P10586),-0.318,-0.602
PUM1_Q14671_980_CIECVQPQSLQFIIDAFK (UniProt Q14671),0.213,-0.0133
PSMC5_P62195_209_AVAHHTDCTFIR (UniProt P62195),0.191,-0.0939
PTPRC_P08575_344_FQCGNMIFDNK (UniProt P08575),-0.261,-0.0286
PUF60_Q9UHX1_129_ALAIMCR (UniProt Q9UHX1),0.0582,0.241
PSMB2_P49721_46_ILLLCVGEAGDTVQFAEYIQK (UniProt P49721),0.389,0.337
PTPRC_P08575_1072_HGDQEICAQYWGEGK (UniProt P08575),-0.067,0.374
PTK2B_Q14289_650_LPKPDLCPPVLYTLMTR (UniProt Q14289),-0.0544,-0.0157
PSMD6_Q15008_266_QYLFSLYECR (UniProt Q15008),0.133,0.553
PTPRJ_Q12913_1039_QQADSNCGFAEEYEDLK (UniProt Q12913),-0.207,-0.0847
PSMA7_O14818_70_KICALDDNVCMAFAGLTADAR (UniProt O14818),0.492,-0.299
PSMB1_P20618_82_TVIGCSGFHGDCLTLTK (UniProt P20618),0.118,0.113
PTPN1_P18031_32_HEASDFPCR (UniProt P18031),0.0814,0.0973
PSMD11_O00231_202_TTANAIYCPPK (UniProt O00231),0.077,0.248
PTPN9_P43378_567_AFSIQTPEQYYFCYK (UniProt P43378),0.197,-0.00044
PTRH2_Q9Y3E5_111_QWEYCGQPK (UniProt Q9Y3E5),0.0013,0.034
PTPN7_P35236_204_CVHYWPTEEETYGPFQIR (UniProt P35236),-0.0465,-0.364
